Source: PubChem BioAssay AID2073 (Sanford-Burnham Center for Chemical Genomics, 2009)
In all, about 290,000 compounds went through this assay and about 570 (0.2%) were called active. The inconclusive results got no clear call from the source; some entries with a clear call stand among them for comparison. No stated cut-off is given here; in the data, active means inhibition mostly above about 51% (no sharp cut-off); inconclusive means no clear call, values can overlap the other calls; inactive means mostly below about 53%.

Amino acid sequences for entries named in this document (tags omitted).
UniProt Q00975, whole entry, looked up: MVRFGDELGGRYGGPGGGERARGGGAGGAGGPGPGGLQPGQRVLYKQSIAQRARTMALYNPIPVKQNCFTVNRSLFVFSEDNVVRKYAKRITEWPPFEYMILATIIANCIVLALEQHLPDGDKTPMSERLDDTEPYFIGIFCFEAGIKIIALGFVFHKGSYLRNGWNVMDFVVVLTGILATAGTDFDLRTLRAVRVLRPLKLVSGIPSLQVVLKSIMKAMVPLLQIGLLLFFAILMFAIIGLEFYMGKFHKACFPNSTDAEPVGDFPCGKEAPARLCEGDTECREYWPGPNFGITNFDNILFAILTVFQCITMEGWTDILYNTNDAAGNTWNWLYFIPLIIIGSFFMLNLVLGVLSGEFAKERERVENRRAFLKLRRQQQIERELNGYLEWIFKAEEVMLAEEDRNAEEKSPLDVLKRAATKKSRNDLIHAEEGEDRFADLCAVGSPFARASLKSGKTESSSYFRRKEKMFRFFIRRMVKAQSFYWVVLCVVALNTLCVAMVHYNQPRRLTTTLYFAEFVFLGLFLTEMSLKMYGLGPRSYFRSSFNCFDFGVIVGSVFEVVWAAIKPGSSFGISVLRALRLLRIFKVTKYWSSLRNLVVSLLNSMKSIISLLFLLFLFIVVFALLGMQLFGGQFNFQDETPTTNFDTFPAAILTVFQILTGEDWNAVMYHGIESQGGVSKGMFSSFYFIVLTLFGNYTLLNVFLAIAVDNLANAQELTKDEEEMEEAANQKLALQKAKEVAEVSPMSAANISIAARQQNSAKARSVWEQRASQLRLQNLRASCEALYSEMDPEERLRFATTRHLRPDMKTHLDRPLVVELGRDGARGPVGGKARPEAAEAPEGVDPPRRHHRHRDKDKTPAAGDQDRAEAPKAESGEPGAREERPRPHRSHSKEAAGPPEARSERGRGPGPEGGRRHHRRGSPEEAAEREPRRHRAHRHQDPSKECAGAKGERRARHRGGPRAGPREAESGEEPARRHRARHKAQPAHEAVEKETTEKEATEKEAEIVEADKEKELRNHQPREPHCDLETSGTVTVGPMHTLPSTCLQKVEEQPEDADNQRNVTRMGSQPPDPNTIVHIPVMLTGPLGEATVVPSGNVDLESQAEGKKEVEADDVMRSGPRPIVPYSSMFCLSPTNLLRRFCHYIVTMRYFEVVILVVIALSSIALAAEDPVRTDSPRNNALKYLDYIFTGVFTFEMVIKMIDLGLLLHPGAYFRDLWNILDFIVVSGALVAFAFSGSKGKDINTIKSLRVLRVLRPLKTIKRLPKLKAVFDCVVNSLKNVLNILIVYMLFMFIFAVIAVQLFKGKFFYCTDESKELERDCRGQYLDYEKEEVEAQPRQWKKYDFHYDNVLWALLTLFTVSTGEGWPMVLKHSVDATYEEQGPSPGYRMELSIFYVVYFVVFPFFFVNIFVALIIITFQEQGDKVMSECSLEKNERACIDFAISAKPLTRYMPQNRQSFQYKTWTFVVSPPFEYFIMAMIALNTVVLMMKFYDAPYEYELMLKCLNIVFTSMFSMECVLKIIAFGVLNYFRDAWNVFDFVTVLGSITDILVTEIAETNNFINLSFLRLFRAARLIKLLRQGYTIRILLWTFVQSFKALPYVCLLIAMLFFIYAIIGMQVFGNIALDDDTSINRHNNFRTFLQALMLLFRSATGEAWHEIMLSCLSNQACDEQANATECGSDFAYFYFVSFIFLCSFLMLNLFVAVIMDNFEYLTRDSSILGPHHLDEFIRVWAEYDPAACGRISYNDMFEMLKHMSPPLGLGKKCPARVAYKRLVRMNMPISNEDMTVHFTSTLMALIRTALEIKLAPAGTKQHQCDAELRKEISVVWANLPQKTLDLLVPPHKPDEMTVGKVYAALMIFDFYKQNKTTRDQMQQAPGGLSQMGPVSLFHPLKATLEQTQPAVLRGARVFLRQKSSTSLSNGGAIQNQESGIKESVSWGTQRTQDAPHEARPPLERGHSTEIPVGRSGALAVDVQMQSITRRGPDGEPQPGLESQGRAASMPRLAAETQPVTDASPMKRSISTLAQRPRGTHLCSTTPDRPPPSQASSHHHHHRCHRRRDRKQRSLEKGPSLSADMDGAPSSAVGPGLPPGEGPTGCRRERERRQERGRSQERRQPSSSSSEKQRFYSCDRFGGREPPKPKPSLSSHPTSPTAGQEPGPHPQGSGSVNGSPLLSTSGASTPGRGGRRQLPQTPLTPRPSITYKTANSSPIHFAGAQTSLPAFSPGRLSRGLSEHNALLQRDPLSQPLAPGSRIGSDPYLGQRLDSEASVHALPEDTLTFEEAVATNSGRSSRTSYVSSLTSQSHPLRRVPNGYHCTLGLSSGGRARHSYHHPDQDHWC

Target: Voltage-dependent N-type calcium channel subunit alpha-1B (Homo sapiens) (UniProt Q00975)
Assay: disruptors of CaV2.2 binding to Mint1 – biochemical, HTRF (AID 2073)
Conditions: HTRF protein-protein interaction, Mint1-CaV2.2; at 20 µM; active compounds read high

How did the inhibition turn out when `COc1ccc(NC(=O)C(Cl)=C(Cl)Cl)cn1` was run?
The inhibition was inconclusive: 51.1%.

For `COc1ccc(S(=O)(=O)c2ccc(OC)cc2)cc1`, which inhibition is on record?
The inhibition was inconclusive: 62.1%.

`CCN1C(=O)c2cccc3c(S(=O)(=O)NCC4CCCO4)ccc1c23` (configuration not stated) was tested. Which inhibition did it give?
Its inhibition is inconclusive: 61.3%.

For `Nc1cc(Cl)c(N)cc1Cl`, which inhibition is on record?
Its inhibition is inconclusive: 54.5%.

Which inhibition does the source give for `O=C(c1cccs1)n1nc(-c2ccco2)nc1SCc1ccccc1` here?
The inhibition was inconclusive: 53%.

For `O=C(C=C1SCCS1)/C=C/c1ccco1`, which inhibition is on record?
Its inhibition is inconclusive: 59.3%.

`Cc1nc(N2CCN(c3ccccc3)CC2)[nH]c(=O)c1Cc1cccc2ccccc12` was tested. Which inhibition did it give?
Its inhibition is inconclusive: 50.6%.

For `O=C(NCCO)c1cc2c([nH]c3ccccc32)c(-c2ccc(F)cc2)n1`, which inhibition is on record?
Its inhibition is inconclusive: 85.6%.

For `COc1ccc2[nH]c(=O)c(CN(Cc3ccc(C)cc3)Cc3nnnn3CC3CCCO3)cc2c1` (configuration not stated), which inhibition is on record?
The inhibition was inconclusive: 96.6%.

Which inhibition does the source give for `Cc1ccc(-c2nn3c(C)nnc3s2)cc1NC(=O)c1ccc(-c2ccc(Cl)cc2Cl)o1` here?
Its inhibition is inconclusive: 96.2%.

How did the inhibition turn out when `COCCCNC(=O)c1cccn2c(=O)c3cc4ccccc4cc3nc12` was run?
The inhibition was inactive: -3.3%.

`Cc1csc(=Nc2c(C)n(C)n(-c3ccccc3)c2=O)n1-c1ccccc1` was tested. Which inhibition did it give?
Its inhibition is inconclusive: 65.4%.

For `Cc1ccc(N=CC=C2OC(C)(C)C(C)(C)O2)cc1`, which inhibition is on record?
Its inhibition is inactive: 1.3%.

`COc1ccc(N=C2SCC(c3ccccc3)=NN2C)cc1` was tested. Which inhibition did it give?
The inhibition was inconclusive: 83.5%.

Which inhibition does the source give for `CC(=O)Nc1cccc2c1OCCO2` here?
The inhibition was inconclusive: 75.9%.

How did the inhibition turn out when `O=C1CCC/C(=N/NC(=O)c2sc3ccccc3c2Cl)C1` was run?
Its inhibition is inactive: 8.3%.

How did the inhibition turn out when `NC(=O)N/N=C/c1ccc2cccc(OCc3ccccc3)c2n1` was run?
The inhibition was inconclusive: 50.6%.

Which inhibition does the source give for `Cc1ccc(C)c(N2CCN(C(=O)CCn3c(=S)[nH]c4cc5c(cc4c3=O)OCO5)CC2)c1` here?
Its inhibition is inactive: 4.3%.

Which inhibition does the source give for `Cc1nc2ccc(-c3nc4cc(N)ccc4o3)cc2[nH]1` here?
The inhibition was inconclusive: 65.4%.

`COc1ccc(-c2nnc(SCC(=O)NC(=O)NCc3ccccc3)o2)cc1` was tested. Which inhibition did it give?
The inhibition was active: 55.3%.

Which inhibition does the source give for `CCC(=O)c1ccc(/C=C/c2nc3ccccc3n2C)o1` here?
The inhibition was inconclusive: 58.1%.

With `Cc1ccc(C)c(NCc2ccccc2CO)c1` as the compound, how does the inhibition read?
Its inhibition is inconclusive: 60.7%.

How did the inhibition turn out when `CC(=NCCN1CCNCC1)C1=C(O)CC(C)(C)CC1=O` was run?
The inhibition was inconclusive: 56.4%.

Which inhibition does the source give for `COc1ccc(OC)c(CN2C(=O)c3ccccc3C2C(=O)NCC2CCCO2)c1` (configuration not stated) here?
Its inhibition is inconclusive: 52.7%.

With `NS(=O)(=O)c1ccc2nc(NC(=O)c3ccc4c(c3)OCCO4)sc2c1` as the compound, how does the inhibition read?
The inhibition was inconclusive: 71.6%.

For `N#Cc1cn(Cc2ccncc2)c(=O)[nH]c1=O`, which inhibition is on record?
The inhibition was inconclusive: 82%.

With `COc1cccc(NC(=O)C(=O)N2CCOCC2)c1` as the compound, how does the inhibition read?
The inhibition was inconclusive: 80.5%.

Which inhibition does the source give for `Cc1cc(C)cc(NC(=O)C2C3C=CC(O3)C2C(=O)O)c1` (configuration not stated) here?
The inhibition was inconclusive: 65.7%.

Which inhibition does the source give for `Cc1ccc(NC(=O)CSc2ccc(-c3cccnc3)nn2)cc1Cl` here?
Its inhibition is inconclusive: 57.3%.

How did the inhibition turn out when `NNC(=O)c1cc(O)c(O)c(O)c1` was run?
The inhibition was active: 63.1%.

For `O=C(NC1CCCCC1)C(c1ccc2ncccc2c1)N(Cc1ccc2c(c1)OCO2)C(=O)c1ccc2c(c1)OCCO2` (configuration not stated), which inhibition is on record?
The inhibition was inconclusive: 62.2%.

Which inhibition does the source give for `CSc1nc(SCC(=O)O)c2sc3nc(-c4ccccc4)c4c(c3c2n1)CCC4` here?
The inhibition was inconclusive: 64.1%.

How did the inhibition turn out when `CC(=O)Nc1c2c(nn1-c1ccccc1)CS(=O)C2` (configuration not stated) was run?
The inhibition was inconclusive: 61.9%.

Which inhibition does the source give for `Cc1nnc(NC(=O)Nc2cccc(Cl)c2)s1` here?
The inhibition was inactive: -1.9%.

How did the inhibition turn out when `COC(=O)CSc1nc2ccc(N)cc2s1` was run?
The inhibition was inconclusive: 71%.

Which inhibition does the source give for `CCN(CC)S(=O)(=O)c1ccc2oc(Nc3ccccc3)nc2c1` here?
Its inhibition is inconclusive: 50.7%.

Which inhibition does the source give for `O=C1CCCC(=NCc2ccco2)C1` here?
Its inhibition is inactive: -7.5%.

With `CCN1C(=O)CS/C1=C(\C#N)S(=O)(=O)c1ccccc1` as the compound, how does the inhibition read?
Its inhibition is inconclusive: 96.4%.

For `COc1cc(NC(=O)c2ccccc2Cl)ccc1NC(=O)c1cccs1`, which inhibition is on record?
The inhibition was inconclusive: 71.7%.

With `COc1cccc(C(=O)NC2CC3CCCC(C2)N3CC(=O)Nc2ccc(N(C)C)cc2)c1` (configuration not stated) as the compound, how does the inhibition read?
Its inhibition is inactive: -12.2%.

For `CCn1cc(C(=O)Nc2ccc(C)cc2C)c(=O)c2ccc(C)nc21`, which inhibition is on record?
The inhibition was inconclusive: 59%.

`N#C/C(=C/c1ccncc1)c1nc2ccccc2s1` was tested. Which inhibition did it give?
Its inhibition is inconclusive: 91.2%.

For `COc1cc(/C=N/Nc2nn3cnnc3c3ccccc23)cc(OC)c1OC`, which inhibition is on record?
The inhibition was inconclusive: 51.4%.

Which inhibition does the source give for `COC(c1ccccc1)c1nnc(CCC(=O)NCc2cccc(-n3cccn3)c2)o1` (configuration not stated) here?
Its inhibition is inactive: 10.4%.

`C#CCOCCOCCOCCNc1nc(N2CCN(C(=O)[C@H](Cc3ccc(O)cc3)n3cc([C@@H](N)CC(C)C)nn3)CC2)nc(N2CCN(C(=O)[C@H](Cc3cc4ccccc4[nH]3)n3cc([C@@H](N)CC(C)C)nn3)CC2)n1` was tested. Which inhibition did it give?
Its inhibition is inactive: 22.3%.

With `CC(=O)Nc1ccc(C(=O)Nc2ccc(S(=O)(=O)N3CCOCC3)cc2)cc1` as the compound, how does the inhibition read?
The inhibition was inactive: -1.1%.

`O=C(NCCN1CCN(c2ccccc2)CC1)c1ccc2c(c1)[nH]c(=S)n1c3ccccc3nc21` was tested. Which inhibition did it give?
Its inhibition is inconclusive: 62.6%.

For `Cc1ccc(NC(=O)COc2ccc(-c3nnco3)cc2)cc1S(=O)(=O)N1CCOCC1`, which inhibition is on record?
Its inhibition is inconclusive: 55.7%.

How did the inhibition turn out when `COc1cc2[nH]c(C(=O)N3CCc4ccccc4C3)cc2c(OC)c1OC` was run?
Its inhibition is inconclusive: 61.4%.

How did the inhibition turn out when `CCOC(=O)Cn1nnnc1C(CC)N(Cc1cccs1)Cc1cc2ccc(OC)cc2[nH]c1=O` (configuration not stated) was run?
Its inhibition is inconclusive: 66.2%.

With `COc1ccc(CC(=O)NNc2ncnc3c2cnn3-c2ccc(C)cc2)cc1` as the compound, how does the inhibition read?
Its inhibition is inconclusive: 66.4%.

`O=C(c1cc(-c2cccnc2)nc2ccc(Br)cc12)N1CCN(c2ncccn2)CC1` was tested. Which inhibition did it give?
Its inhibition is inconclusive: 57.3%.

With `Cc1ccc(CN2C(=O)C3CCCN3c3ncccc32)cc1` (configuration not stated) as the compound, how does the inhibition read?
The inhibition was inconclusive: 77.9%.

`CCOc1ccc(CCNC(=O)CSc2nnnn2C)cc1OCC` was tested. Which inhibition did it give?
Its inhibition is inactive: 0%.

`O=c1c2ccccc2oc2cc(NCCCn3ccnc3)ccc12` was tested. Which inhibition did it give?
Its inhibition is inconclusive: 58.3%.

With `COc1ccc(C2=NN(c3ccccc3)C(c3cn(CCC(=O)O)nc3-c3ccccc3)C2)cc1` (configuration not stated) as the compound, how does the inhibition read?
The inhibition was inconclusive: 66.9%.

How did the inhibition turn out when `CCCn1c(C)cc(C(=O)COC(=O)c2c(C)nn(-c3ccccc3)c2C)c1C` was run?
Its inhibition is inconclusive: 66.5%.
